This test concerns the target ARID1A (human (endogenous in 12Z)) (UniProt O14497). The test can be described thus: co-IP; 12Z nuclear extract (500 ug) in IP buffer (20 mM HEPES, 150 mM KCl, 10% glycerol, 0.2 mM EDTA, 0.1% Tween-20, 0.5 mM DTT); anti-ARID1A (D2A8U) or anti-CHD4 (D8B12) on Protein A Dynabeads, overnight at 4 °C; washes at 150, 300, 100 and 60 mM KCl; normal rabbit IgG as control; immunoblot. (In general: In western blotting, separated proteins are transferred to a membrane and probed.)

Sequences of proteins named here, by UniProt entry; tags and fusion partners are left off.
UniProt O14497: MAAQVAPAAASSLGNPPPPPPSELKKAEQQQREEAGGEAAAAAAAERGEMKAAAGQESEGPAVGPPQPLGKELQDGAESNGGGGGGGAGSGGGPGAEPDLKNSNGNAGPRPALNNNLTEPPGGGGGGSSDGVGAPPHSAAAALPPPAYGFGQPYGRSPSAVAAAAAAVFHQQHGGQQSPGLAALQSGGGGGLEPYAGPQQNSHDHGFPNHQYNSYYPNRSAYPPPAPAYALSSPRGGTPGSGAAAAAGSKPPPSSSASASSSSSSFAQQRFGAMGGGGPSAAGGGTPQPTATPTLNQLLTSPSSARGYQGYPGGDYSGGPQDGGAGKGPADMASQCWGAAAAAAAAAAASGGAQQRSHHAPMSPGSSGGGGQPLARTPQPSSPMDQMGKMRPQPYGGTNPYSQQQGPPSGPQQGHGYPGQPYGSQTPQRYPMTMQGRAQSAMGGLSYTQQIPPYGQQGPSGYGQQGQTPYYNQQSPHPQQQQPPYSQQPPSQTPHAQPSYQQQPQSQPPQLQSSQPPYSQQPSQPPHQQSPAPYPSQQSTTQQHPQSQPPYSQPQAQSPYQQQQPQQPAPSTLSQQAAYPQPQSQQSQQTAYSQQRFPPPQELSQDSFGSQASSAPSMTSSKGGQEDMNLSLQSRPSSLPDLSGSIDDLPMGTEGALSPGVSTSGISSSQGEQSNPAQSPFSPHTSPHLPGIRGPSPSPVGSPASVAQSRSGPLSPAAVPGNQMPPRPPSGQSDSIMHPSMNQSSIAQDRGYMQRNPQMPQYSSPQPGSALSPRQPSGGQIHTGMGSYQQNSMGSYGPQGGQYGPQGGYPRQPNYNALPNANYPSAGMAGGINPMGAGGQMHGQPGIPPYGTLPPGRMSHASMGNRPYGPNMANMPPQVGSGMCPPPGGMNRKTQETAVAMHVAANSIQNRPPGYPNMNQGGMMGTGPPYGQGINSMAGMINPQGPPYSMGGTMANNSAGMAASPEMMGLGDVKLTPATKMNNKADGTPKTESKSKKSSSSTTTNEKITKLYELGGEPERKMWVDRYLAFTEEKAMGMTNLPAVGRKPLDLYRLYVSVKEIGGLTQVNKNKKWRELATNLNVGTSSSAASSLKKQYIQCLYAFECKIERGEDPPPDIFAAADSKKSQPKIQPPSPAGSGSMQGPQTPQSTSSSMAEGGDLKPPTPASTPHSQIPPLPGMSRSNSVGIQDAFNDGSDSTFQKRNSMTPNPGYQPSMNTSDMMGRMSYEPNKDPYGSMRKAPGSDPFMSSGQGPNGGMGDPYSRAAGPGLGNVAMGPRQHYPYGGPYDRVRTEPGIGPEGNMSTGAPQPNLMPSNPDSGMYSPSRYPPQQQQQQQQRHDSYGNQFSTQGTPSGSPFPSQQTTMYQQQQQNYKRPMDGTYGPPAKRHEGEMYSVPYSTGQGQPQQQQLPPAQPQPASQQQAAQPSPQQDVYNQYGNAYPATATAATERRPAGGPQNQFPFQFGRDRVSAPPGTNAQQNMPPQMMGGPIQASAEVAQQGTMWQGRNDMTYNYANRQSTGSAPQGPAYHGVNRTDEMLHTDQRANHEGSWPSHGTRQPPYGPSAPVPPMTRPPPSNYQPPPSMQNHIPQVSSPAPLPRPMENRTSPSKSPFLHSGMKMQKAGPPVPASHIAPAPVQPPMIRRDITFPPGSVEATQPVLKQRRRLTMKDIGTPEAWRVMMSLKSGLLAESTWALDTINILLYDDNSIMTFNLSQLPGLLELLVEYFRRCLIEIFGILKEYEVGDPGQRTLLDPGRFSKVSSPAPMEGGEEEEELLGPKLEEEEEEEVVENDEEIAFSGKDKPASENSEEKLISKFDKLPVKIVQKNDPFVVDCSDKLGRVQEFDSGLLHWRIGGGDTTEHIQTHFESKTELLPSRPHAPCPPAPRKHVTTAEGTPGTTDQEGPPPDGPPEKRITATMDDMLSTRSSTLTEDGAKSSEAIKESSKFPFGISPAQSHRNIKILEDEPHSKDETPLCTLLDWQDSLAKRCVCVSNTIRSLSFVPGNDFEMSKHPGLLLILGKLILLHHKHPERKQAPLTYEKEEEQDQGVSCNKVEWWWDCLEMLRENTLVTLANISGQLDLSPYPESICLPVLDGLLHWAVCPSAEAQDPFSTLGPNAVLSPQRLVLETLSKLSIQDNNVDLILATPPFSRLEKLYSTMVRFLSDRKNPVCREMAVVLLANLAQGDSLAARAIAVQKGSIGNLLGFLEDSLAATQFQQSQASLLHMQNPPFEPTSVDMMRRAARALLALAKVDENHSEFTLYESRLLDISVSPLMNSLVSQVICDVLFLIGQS
UniProt Q14839: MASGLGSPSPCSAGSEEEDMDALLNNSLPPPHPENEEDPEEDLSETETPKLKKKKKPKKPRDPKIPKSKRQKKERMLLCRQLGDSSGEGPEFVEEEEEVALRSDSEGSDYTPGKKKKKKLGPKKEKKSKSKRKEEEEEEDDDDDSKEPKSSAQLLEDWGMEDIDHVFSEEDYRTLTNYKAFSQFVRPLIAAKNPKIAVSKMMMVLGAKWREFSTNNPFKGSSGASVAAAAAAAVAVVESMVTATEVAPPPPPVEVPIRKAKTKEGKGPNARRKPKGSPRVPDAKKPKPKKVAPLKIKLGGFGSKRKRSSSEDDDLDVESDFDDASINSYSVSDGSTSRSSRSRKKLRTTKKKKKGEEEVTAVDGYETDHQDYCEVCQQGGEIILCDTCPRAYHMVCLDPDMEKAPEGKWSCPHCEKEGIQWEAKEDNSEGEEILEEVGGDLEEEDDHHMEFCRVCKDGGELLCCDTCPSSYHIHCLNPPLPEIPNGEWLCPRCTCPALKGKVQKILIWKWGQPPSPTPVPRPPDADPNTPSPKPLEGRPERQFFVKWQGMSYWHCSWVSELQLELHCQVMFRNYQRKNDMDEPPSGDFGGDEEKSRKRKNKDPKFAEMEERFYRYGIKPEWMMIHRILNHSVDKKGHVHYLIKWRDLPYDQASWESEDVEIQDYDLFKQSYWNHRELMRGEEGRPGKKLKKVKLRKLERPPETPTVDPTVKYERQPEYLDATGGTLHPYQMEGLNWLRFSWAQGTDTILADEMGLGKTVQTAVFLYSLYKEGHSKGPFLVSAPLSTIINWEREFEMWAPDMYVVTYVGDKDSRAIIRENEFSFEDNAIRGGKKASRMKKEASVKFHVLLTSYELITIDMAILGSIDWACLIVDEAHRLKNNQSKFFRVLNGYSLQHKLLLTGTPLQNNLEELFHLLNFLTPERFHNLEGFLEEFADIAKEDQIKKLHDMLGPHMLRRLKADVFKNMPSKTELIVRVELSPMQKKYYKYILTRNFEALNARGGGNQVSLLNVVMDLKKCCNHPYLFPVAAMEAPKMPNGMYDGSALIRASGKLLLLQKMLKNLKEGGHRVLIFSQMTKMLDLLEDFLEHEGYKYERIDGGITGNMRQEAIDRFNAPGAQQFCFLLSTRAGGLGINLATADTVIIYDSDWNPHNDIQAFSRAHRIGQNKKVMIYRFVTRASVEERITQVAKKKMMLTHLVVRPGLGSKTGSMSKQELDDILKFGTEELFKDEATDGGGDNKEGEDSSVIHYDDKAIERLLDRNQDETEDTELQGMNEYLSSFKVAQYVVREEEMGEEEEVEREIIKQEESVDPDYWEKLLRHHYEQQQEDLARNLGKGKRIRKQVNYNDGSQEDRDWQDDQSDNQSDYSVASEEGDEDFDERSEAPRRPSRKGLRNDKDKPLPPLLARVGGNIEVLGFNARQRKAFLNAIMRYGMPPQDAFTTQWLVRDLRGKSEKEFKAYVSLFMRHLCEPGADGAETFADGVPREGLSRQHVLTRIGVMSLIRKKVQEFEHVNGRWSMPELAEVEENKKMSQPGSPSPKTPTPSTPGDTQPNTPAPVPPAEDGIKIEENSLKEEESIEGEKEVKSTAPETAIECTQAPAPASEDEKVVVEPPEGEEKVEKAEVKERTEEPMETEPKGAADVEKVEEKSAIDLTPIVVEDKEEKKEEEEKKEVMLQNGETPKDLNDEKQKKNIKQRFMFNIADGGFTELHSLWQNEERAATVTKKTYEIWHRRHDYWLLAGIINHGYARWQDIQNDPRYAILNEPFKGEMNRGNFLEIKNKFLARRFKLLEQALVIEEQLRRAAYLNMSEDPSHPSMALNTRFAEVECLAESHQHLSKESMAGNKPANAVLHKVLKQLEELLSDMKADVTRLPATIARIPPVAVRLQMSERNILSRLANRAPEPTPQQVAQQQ

Results are given in words; binding and its absence hold for the method and conditions named. In cells and extracts the contact can be indirect. Some binding calls cover weakened binding; strength is not graded here.

Consider CHD4 (from UniProt Q14839 1-1912), for which the binding entry is listed as “binds”.

Source of the values: publication PMC9509632.
